Results are given in words; binding and its absence hold for the method and conditions named. Some results given as binding are weak or reduced against the parent protein; the word gives no strength.
Columns and labels:
[1] = molecular target: DC-SIGNR tetramer (entire extracellular domain) (UniProt Q9H2X3); test: far-Western, overlay or dot blot; DC-SIGN and DC-SIGNR proteins run on 12% SDS-PAGE under reducing conditions, transferred to PVDF; probed with rfhSP-D (5 µg/ml) for 2 h; anti-SP-D polyclonal, Protein A-HRP; both purified
[2] = molecular target: DC-SIGN monomer (CRD region alone) (UniProt Q9NNX6); test: as above
[3] = molecular target: DC-SIGN tetramer (entire extracellular domain) (UniProt Q9NNX6); test: as above
[4] = molecular target: DC-SIGNR tetramer (entire extracellular domain) (UniProt Q9H2X3); test: ELISA; DC-SIGN/DC-SIGNR proteins coated (5-0.625 µg/well, carbonate/bicarbonate buffer pH 9.6); 2.5 µg rfhSP-D in 20 mM Tris-HCl pH 7.5, 100 mM NaCl, 5 mM CaCl2 or 5 mM EDTA, 1 h 37°C then 1 h 4°C; detected with anti-SP-D polyclonal and Protein A-HRP; both purified
[5] = molecular target: DC-SIGN monomer (CRD region alone) (UniProt Q9NNX6); test: as above
[6] = molecular target: DC-SIGN tetramer (entire extracellular domain) (UniProt Q9NNX6); test: as above

The chains behind the UniProt entries cited, without tags or fusion partners. Where a name states a change or a piece, a line headed by the entry shows the natural chain unless it says otherwise. Residues count along the entry.
UniProt Q9H2X3, residues 71-399: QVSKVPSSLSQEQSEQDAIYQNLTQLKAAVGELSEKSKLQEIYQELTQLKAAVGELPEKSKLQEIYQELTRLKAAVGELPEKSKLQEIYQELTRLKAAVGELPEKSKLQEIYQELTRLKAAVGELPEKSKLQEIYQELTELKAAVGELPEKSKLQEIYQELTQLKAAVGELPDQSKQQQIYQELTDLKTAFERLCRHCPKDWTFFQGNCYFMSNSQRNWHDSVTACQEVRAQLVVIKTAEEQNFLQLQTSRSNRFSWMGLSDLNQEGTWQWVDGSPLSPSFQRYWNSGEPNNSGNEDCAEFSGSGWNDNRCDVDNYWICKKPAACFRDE
UniProt Q9NNX6: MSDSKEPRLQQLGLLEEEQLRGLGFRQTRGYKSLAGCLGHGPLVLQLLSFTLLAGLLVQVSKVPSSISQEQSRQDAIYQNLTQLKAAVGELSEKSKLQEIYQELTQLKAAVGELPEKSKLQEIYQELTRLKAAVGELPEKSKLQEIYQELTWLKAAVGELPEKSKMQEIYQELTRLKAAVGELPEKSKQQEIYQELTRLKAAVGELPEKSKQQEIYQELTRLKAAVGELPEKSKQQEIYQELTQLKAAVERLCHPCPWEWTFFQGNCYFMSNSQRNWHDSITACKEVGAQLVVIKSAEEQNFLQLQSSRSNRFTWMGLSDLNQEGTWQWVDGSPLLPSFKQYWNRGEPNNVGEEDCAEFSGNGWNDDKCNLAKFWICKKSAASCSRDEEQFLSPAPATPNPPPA
DC-SIGN tetramer (entire extracellular domain): residues 59-404 of Q9NNX6
DC-SIGN monomer (CRD region alone): residues 250-404 of Q9NNX6
UniProt P35247, residues 201-375: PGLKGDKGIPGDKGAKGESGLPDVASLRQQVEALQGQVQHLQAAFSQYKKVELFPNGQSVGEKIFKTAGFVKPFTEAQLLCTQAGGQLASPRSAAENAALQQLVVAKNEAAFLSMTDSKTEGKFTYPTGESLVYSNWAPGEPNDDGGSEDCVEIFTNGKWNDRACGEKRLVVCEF

Measured: binding

recombinant fragment of human surfactant protein D (rfhSP-D) (from UniProt P35247 201-375) (domain or fragment)
binds: [1] | [2] | [3] | [4] | [5] | [6]

— article PMC5534670
